{"sequences": {"note": "Sequences of proteins named here, by UniProt entry; tags and fusion partners are left off.", "UniProt Q61188, whole entry": "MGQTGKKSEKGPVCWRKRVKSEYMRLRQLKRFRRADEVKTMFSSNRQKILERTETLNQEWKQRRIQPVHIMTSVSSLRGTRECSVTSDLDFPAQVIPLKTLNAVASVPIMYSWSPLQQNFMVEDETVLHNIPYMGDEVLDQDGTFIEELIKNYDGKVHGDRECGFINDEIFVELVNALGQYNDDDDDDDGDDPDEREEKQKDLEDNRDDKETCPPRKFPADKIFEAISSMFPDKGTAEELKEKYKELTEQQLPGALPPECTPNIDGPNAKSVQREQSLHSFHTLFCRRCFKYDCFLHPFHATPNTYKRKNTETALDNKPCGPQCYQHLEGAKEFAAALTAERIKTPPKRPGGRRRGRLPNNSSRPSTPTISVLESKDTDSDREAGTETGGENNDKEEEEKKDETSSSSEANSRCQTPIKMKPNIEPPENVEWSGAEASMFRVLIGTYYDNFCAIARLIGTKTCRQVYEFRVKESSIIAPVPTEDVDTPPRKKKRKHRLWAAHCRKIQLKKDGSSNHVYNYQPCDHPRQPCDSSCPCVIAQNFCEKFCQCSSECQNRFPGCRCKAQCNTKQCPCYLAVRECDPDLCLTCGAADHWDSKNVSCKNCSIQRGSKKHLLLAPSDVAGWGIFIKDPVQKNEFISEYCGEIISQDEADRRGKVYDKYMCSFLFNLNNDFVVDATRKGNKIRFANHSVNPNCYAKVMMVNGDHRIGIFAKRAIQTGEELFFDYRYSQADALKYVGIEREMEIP"}, "source": "ChEMBL document CHEMBL5674883", "about": "“The Heterochromatin Landscape in Migrating Cells and the Importance of H3K27me3 for Associated Transcriptome Alterations” (Cells, 2018)", "format_in_all_cases": "cell-based", "key": {"[1]": {"biological_target": "Histone-lysine N-methyltransferase EZH2 (Mus musculus) (UniProt Q61188)", "test": "Inhibition of EZH2 in mouse B16-F1 migrating cells assessed as fold change in H3K27me3-buffered regulated Pou3f2-mRNA expression at 3 uM measured by ChIP-seq analysis relative to control cells"}, "[2]": {"biological_target": "Histone-lysine N-methyltransferase EZH2 (Mus musculus) (UniProt Q61188)", "test": "Inhibition of EZH2 in mouse B16-F1 migrating cells assessed as fold change in H3K27me3-buffered regulated Arid4b-mRNA expression at 3 uM measured by ChIP-seq analysis relative to control cells"}, "[3]": {"biological_target": "Histone-lysine N-methyltransferase EZH2 (Mus musculus) (UniProt Q61188)", "test": "Inhibition of EZH2 in mouse B16-F1 migrating cells assessed as fold change in H3K27me3-buffered regulated Filip1l-mRNA expression at 3 uM measured by ChIP-seq analysis relative to control cells"}, "[4]": {"biological_target": "Histone-lysine N-methyltransferase EZH2 (Mus musculus) (UniProt Q61188)", "test": "Inhibition of EZH2 in mouse B16-F1 migrating cells assessed as fold change in H3K27me3-buffered regulated Rif1-mRNA expression at 3 uM measured by ChIP-seq analysis relative to control cells"}, "[5]": {"biological_target": "Histone-lysine N-methyltransferase EZH2 (Mus musculus) (UniProt Q61188)", "test": "Inhibition of EZH2 in mouse B16-F1 migrating cells assessed as fold change in H3K27me3-buffered regulated Atrx-mRNA expression at 3 uM measured by ChIP-seq analysis relative to control cells"}, "[6]": {"biological_target": "Histone-lysine N-methyltransferase EZH2 (Mus musculus) (UniProt Q61188)", "test": "Inhibition of EZH2 in mouse B16-F1 migrating cells assessed as fold change in H3K27me3-buffered regulated Tbc1d16-mRNA expression at 3 uM measured by ChIP-seq analysis relative to control cells"}, "[7]": {"biological_target": "Histone-lysine N-methyltransferase EZH2 (Mus musculus) (UniProt Q61188)", "test": "Inhibition of EZH2 in mouse B16-F1 migrating cells assessed as fold change in H3K27me3-buffered regulated Rgs16-mRNA expression at 3 uM measured by ChIP-seq analysis relative to control cells"}, "[8]": {"biological_target": "Histone-lysine N-methyltransferase EZH2 (Mus musculus) (UniProt Q61188)", "test": "Inhibition of EZH2 in mouse B16-F1 migrating cells assessed as fold change in H3K27me3-dependent regulated 2810410L24Rik-mRNA expression at 3 uM measured by ChIP-seq analysis relative to control cells"}, "[9]": {"biological_target": "Histone-lysine N-methyltransferase EZH2 (Mus musculus) (UniProt Q61188)", "test": "Inhibition of EZH2 in mouse B16-F1 migrating cells assessed as fold change in H3K27me3-buffered regulated Tex9-mRNA expression at 3 uM measured by ChIP-seq analysis relative to control cells"}, "[10]": {"biological_target": "Histone-lysine N-methyltransferase EZH2 (Mus musculus) (UniProt Q61188)", "test": "Inhibition of EZH2 in mouse B16-F1 migrating cells assessed as fold change in H3K27me3-dependent regulated 5430430B14Rik-mRNA expression at 3 uM measured by ChIP-seq analysis relative to control cells"}, "[11]": {"biological_target": "Histone-lysine N-methyltransferase EZH2 (Mus musculus) (UniProt Q61188)", "test": "Inhibition of EZH2 in mouse B16-F1 migrating cells assessed as fold change in H3K27me3-buffered regulated Mis18a-mRNA expression at 3 uM measured by ChIP-seq analysis relative to control cells"}, "[12]": {"biological_target": "Histone-lysine N-methyltransferase EZH2 (Mus musculus) (UniProt Q61188)", "test": "Inhibition of EZH2 in mouse B16-F1 migrating cells assessed as fold change in H3K27me3-buffered regulated Boc-mRNA expression at 3 uM measured by ChIP-seq analysis relative to control cells"}, "[13]": {"biological_target": "Histone-lysine N-methyltransferase EZH2 (Mus musculus) (UniProt Q61188)", "test": "Inhibition of EZH2 in mouse B16-F1 migrating cells assessed as fold change in H3K27me3-buffered regulated Ccp110-mRNA expression at 3 uM measured by ChIP-seq analysis relative to control cells"}, "[14]": {"biological_target": "Histone-lysine N-methyltransferase EZH2 (Mus musculus) (UniProt Q61188)", "test": "Inhibition of EZH2 in mouse B16-F1 migrating cells assessed as fold change in H3K27me3-buffered regulated Capg-mRNA expression at 3 uM measured by ChIP-seq analysis relative to control cells"}, "[15]": {"biological_target": "T1, RNA polymerase II (Mus musculus) (UniProt P08775+Q8CFI7+P97760+A0A3Q4L2S8+Q80UW8+P61219+P62488+Q923G2+P60898+O08740+Q63871+P62876)", "test": "Inhibition of RNA polymerase II in mouse B16-F1 migrating cells assessed as fold change in Pds5b-RNA stability at 0.1 mM measured by ChIP-seq analysis relative to control cells"}, "[16]": {"biological_target": "T1, RNA polymerase II (Mus musculus)", "test": "Inhibition of RNA polymerase II in mouse B16-F1 migrating cells assessed as fold change in Slf1-RNA stability at 0.1 mM measured by ChIP-seq analysis relative to control cells"}, "[17]": {"biological_target": "T1, RNA polymerase II (Mus musculus)", "test": "Inhibition of RNA polymerase II in mouse B16-F1 migrating cells assessed as fold change in Dstyk-RNA stability at 0.1 mM measured by ChIP-seq analysis relative to control cells"}, "[18]": {"biological_target": "T1, RNA polymerase II (Mus musculus)", "test": "Inhibition of RNA polymerase II in mouse B16-F1 migrating cells assessed as fold change in Ltbr-RNA stability at 0.1 mM measured by ChIP-seq analysis relative to control cells"}, "[19]": {"biological_target": "T1, RNA polymerase II (Mus musculus)", "test": "Inhibition of RNA polymerase II in mouse B16-F1 migrating cells assessed as fold change in Bmpr1a-RNA stability at 0.1 mM measured by ChIP-seq analysis relative to control cells"}, "[20]": {"biological_target": "T1, RNA polymerase II (Mus musculus)", "test": "Inhibition of RNA polymerase II in mouse B16-F1 migrating cells assessed as fold change in Cnot2-RNA stability at 0.1 mM measured by ChIP-seq analysis relative to control cells"}, "[21]": {"biological_target": "T1, RNA polymerase II (Mus musculus)", "test": "Inhibition of RNA polymerase II in mouse B16-F1 migrating cells assessed as fold change in Sp4-RNA stability at 0.1 mM measured by ChIP-seq analysis relative to control cells"}, "[22]": {"biological_target": "T1, RNA polymerase II (Mus musculus)", "test": "Inhibition of RNA polymerase II in mouse B16-F1 migrating cells assessed as fold change in Chchd6-RNA stability at 0.1 mM measured by ChIP-seq analysis relative to control cells"}, "[23]": {"biological_target": "T1, RNA polymerase II (Mus musculus)", "test": "Inhibition of RNA polymerase II in mouse B16-F1 migrating cells assessed as fold change in Dynlt3-RNA stability at 0.1 mM measured by ChIP-seq analysis relative to control cells"}, "[24]": {"biological_target": "T1, RNA polymerase II (Mus musculus)", "test": "Inhibition of RNA polymerase II in mouse B16-F1 migrating cells assessed as fold change in Zfp597-RNA stability at 0.1 mM measured by ChIP-seq analysis relative to control cells"}, "[25]": {"biological_target": "T1, RNA polymerase II (Mus musculus)", "test": "Inhibition of RNA polymerase II in mouse B16-F1 migrating cells assessed as fold change in Lactb2-RNA stability at 0.1 mM measured by ChIP-seq analysis relative to control cells"}, "[26]": {"biological_target": "T1, RNA polymerase II (Mus musculus)", "test": "Inhibition of RNA polymerase II in mouse B16-F1 migrating cells assessed as fold change in Jade1-RNA stability at 0.1 mM measured by ChIP-seq analysis relative to control cells"}, "[27]": {"biological_target": "T1, RNA polymerase II (Mus musculus)", "test": "Inhibition of RNA polymerase II in mouse B16-F1 migrating cells assessed as fold change in Naa15-RNA stability at 0.1 mM measured by ChIP-seq analysis relative to control cells"}, "[28]": {"biological_target": "T1, RNA polymerase II (Mus musculus)", "test": "Inhibition of RNA polymerase II in mouse B16-F1 migrating cells assessed as fold change in Bub1-RNA stability at 0.1 mM measured by ChIP-seq analysis relative to control cells"}, "[29]": {"biological_target": "T1, RNA polymerase II (Mus musculus)", "test": "Inhibition of RNA polymerase II in mouse B16-F1 migrating cells assessed as fold change in Gemin7-RNA stability at 0.1 mM measured by ChIP-seq analysis relative to control cells"}, "[30]": {"biological_target": "T1, RNA polymerase II (Mus musculus)", "test": "Inhibition of RNA polymerase II in mouse B16-F1 migrating cells assessed as fold change in Aldoc-RNA stability at 0.1 mM measured by ChIP-seq analysis relative to control cells"}}, "note": "The source gives many values for each of these; only a part stands here."}
{"compound": "CCCc1cc(C)[nH]c(=O)c1CNC(=O)c1cc(-c2ccnc(N3CCN(C)CC3)c2)cc2c1cnn2C(C)C", "values": [{"measurement": "log2FC", "setting": "[1]", "result": -1.32}, {"measurement": "log2FC", "setting": "[2]", "result": -0.4}, {"measurement": "log2FC", "setting": "[3]", "result": -0.78}, {"measurement": "log2FC", "setting": "[4]", "result": -0.43}, {"measurement": "log2FC", "setting": "[5]", "result": -0.39}, {"measurement": "log2FC", "setting": "[6]", "result": 0.6}, {"measurement": "log2FC", "setting": "[7]", "result": -1.06}, {"measurement": "log2FC", "setting": "[8]", "result": -0.33}, {"measurement": "log2FC", "setting": "[9]", "result": -0.45}, {"measurement": "log2FC", "setting": "[10]", "result": 0.64}, {"measurement": "log2FC", "setting": "[11]", "result": -0.51}, {"measurement": "log2FC", "setting": "[12]", "result": -0.86}, {"measurement": "log2FC", "setting": "[13]", "result": -0.39}, {"measurement": "log2FC", "setting": "[14]", "result": 0.41}]}
{"compound": "OC[C@H]1O[C@@H](n2cnc3cc(Cl)c(Cl)cc32)[C@H](O)[C@@H]1O", "values": [{"measurement": "log2FC", "setting": "[15]", "result": -0.52}, {"measurement": "log2FC", "setting": "[16]", "result": -0.85}, {"measurement": "log2FC", "setting": "[17]", "result": -0.43}, {"measurement": "log2FC", "setting": "[18]", "result": 0.42}, {"measurement": "log2FC", "setting": "[19]", "result": -0.49}, {"measurement": "log2FC", "setting": "[20]", "result": -0.48}, {"measurement": "log2FC", "setting": "[21]", "result": -0.78}, {"measurement": "log2FC", "setting": "[22]", "result": 0.45}, {"measurement": "log2FC", "setting": "[23]", "result": -0.87}, {"measurement": "log2FC", "setting": "[24]", "result": -1.12}, {"measurement": "log2FC", "setting": "[25]", "result": -0.53}, {"measurement": "log2FC", "setting": "[26]", "result": -0.55}, {"measurement": "log2FC", "setting": "[27]", "result": -0.56}, {"measurement": "log2FC", "setting": "[28]", "result": -0.55}, {"measurement": "log2FC", "setting": "[29]", "result": 0.46}, {"measurement": "log2FC", "setting": "[30]", "result": 1.18}]}
